PubChem BioAssay AID1224826 – NIAID, 2016

Screen: 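Genes that change LPS-induced Tnf promoter activity in mouse macrophages when knocked down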 (primary screen)
Cell system: RAW264.7 G9 macrophages from mouse bearing reporters for p65 (GFP) and the Tnf promoter (mCherry)
Reagent: siRNA pool against mouse genes, 100 nM
Timing: 16 h of LPS stimulation, after 2 days of siRNA transfection
Treatment: bacterial lipopolysaccharide (Salmonella minnesota R595), 10 ng/ml
Measurement: 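Imaged Tnf reporter mCherry in nuclei, minus background, normalised per plate to the median and expressed as robust z-scores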
Scale: Tnf reporter robust z-score: higher = stronger Tnf promoter reporter signal after LPS; Tnf reporter intensity: higher = stronger Tnf promoter reporter signal
Hit rule: 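Called active when robust z-score is at most -1.3, matching the median of the Tlr4 knock-down control, or over 3; control wells and wells with under 50 cells never active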
Calls: active = Tnf reporter clearly lowered or raised; inactive = no clear change in Tnf reporter
Here is a random part of about 17,000 reagents. About 1,110 of all reagents (6.6%) were called active. 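Active means lowered or raised reporter signal; replicate intensities are raw and not normalised per plate.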

Gene | Tnf reporter robust z-score | fewer than 50 cells in well | Tnf reporter intensity, replicate 1 | Tnf reporter intensity, replicate 2 | outcome
Hmgn1 (high mobility group nucleosomal binding domain 1) | 0.03 | enough cells in well | 248 | 183 | inactive
Ddx17 (DEAD box helicase 17) | – | fewer than 50 cells per well; well left out of calls | 294 | 96.7 | inactive
Tfap2a (transcription factor AP-2, alpha) | -0.64 | enough cells in well | 216 | 84.1 | inactive
Mylk2 (myosin, light polypeptide kinase 2, skeletal muscle) | – | fewer than 50 cells per well; well left out of calls | 196 | 208 | inactive
Liat1 (ligand of ATE1) | 3.15 | enough cells in well | 288 | 388 | active
Clec4a2 (C-type lectin domain family 4, member a2) | 0.93 | enough cells in well | 184 | 275 | inactive
Zcchc12 (zinc finger, CCHC domain containing 12) | 1.19 | enough cells in well | 413 | 78.9 | inactive
Dbpht2 (DNA binding protein with his-thr domain) | -0.81 | enough cells in well | 145 | 111 | inactive
Rps4x (ribosomal protein S4, X-linked) | -1.23 | enough cells in well | 190 | 113 | inactive
Myh2 (myosin, heavy polypeptide 2, skeletal muscle, adult) | -0.32 | enough cells in well | 272 | 152 | inactive
Tcn2 (transcobalamin 2) | -0.1 | enough cells in well | 185 | 155 | inactive
Nfkb1 | -1.12 | enough cells in well | 157 | 76.5 | inactive
Hsd17b10 (hydroxysteroid (17-beta) dehydrogenase 10) | 2.2 | enough cells in well | 419 | 292 | inactive
Akap12 (A kinase anchor protein 12) | 1.14 | enough cells in well | 216 | 253 | inactive
Hspa1a (heat shock protein family A (Hsp70) member 1A) | -0.12 | enough cells in well | 245 | 166 | inactive
Ptprn2 (protein tyrosine phosphatase receptor type N polypeptide 2) | 2.16 | enough cells in well | 539 | 351 | inactive
Ulk4 (unc-51-like kinase 4) | -1.57 | enough cells in well | 81.4 | 70.9 | active
Gm2a (GM2 ganglioside activator protein) | -0.3 | enough cells in well | 169 | 209 | inactive
Scp2 | 0.84 | enough cells in well | 392 | 247 | inactive
Trp53 (transformation related protein 53) | -0.81 | enough cells in well | 182 | 148 | inactive
Prcc (papillary renal cell carcinoma (translocation-associated)) | 0.26 | enough cells in well | 272 | 206 | inactive
Dbx2 (developing brain homeobox 2) | 0.71 | enough cells in well | 231 | 225 | inactive
Mlxipl (MLX interacting protein-like) | -0.3 | enough cells in well | 268 | 178 | inactive
Nucb1 (nucleobindin 1) | -0.9 | enough cells in well | 205 | 97.2 | inactive

Laid out differently: results already given.
Liat1 (ligand of ATE1)
- Tnf reporter robust z-score: 3.15
- fewer than 50 cells in well: enough cells in well
- Tnf reporter intensity, replicate 1: 288
- Tnf reporter intensity, replicate 2: 388
- outcome: active

Clec4a2 (C-type lectin domain family 4, member a2)
- Tnf reporter robust z-score: 0.93
- fewer than 50 cells in well: enough cells in well
- Tnf reporter intensity, replicate 1: 184
- Tnf reporter intensity, replicate 2: 275
- outcome: inactive
